According to patent US12496303B2, “Conditioning agents for use in allogeneic hematopoietic stem cell transplantation” (priority 2020, dated 2025):
At least one compound was matched to its structure with a doubt left.

Columns and labels:
[1] = syngeneic HSCT model (B6-GFP→B6); format: in vivo, mouse
[2] = miHA-mismatched allo-HSCT (BALB/c-Ly5.1→DBA/2); format: in vivo, mouse; conditions: CD45-SAP conditioning plus daily baricitinib (400 μg s.c.)
Method: (§1) To investigate the efficacy of ADCs for allo-HSCT conditioning, two transplant models were used (see e.g., FIG. 2A): a miHA-mismatched BALB/c-Ly5.1→DBA/2 model and a haploidentical CB6F1→B6 (F1-to-parent) model MHC-mismatched for H-2d in the host-versus-graft direction. CD45-SAP was chosen for conditioning in these studies to leverage its lymphodepleting activity to overcome graft rejection.
(§2) Mice were injected with CD45-SAP or cKit-SAP at doses indicated in each figure at 7 days pre-transplant (d-7). In general, 3 mg/kg (75 μg) CD45-SAP, and 0.4 mg/kg or 2 mg/kg (10 or 50 μg, respectively) cKit-SAP were used. On transplant day (d0), mice received 10×10^6 whole donor bone marrow cells via the retroorbital injection.
(§3) CD4^+ and CD8^+ T cell depletion was done using clones GK1.5 and YTS169.4, respectively, and NK cell depletion done using clone PK136. […] All antibodies were administered intraperitoneally at 250 μg per dose following the schema for each experiment.
(§4) Immediately prior to injection, these DMSO stocks were thawed, diluted 1:10 in PBS, and injected at 200 μl/mouse subcutaneously (400 μg daily dose).

[3] = MHC-mismatched haploidentical allo-HSCT (CB6F1→B6); format: in vivo, mouse
Method: as §1, §2, §3, §4
ALZET subcutaneous osmotic pumps (Model 2004) were used to continuously deliver JAK1/2 inhibitors to mice for 28 days at a rate of 0.25 μL/hour (6 μL/day). A vehicle of 50% dimethyl sulfoxide (DMSO)/50% polyethylene glycol 400 (PEG-400) was used for all experiments. JAK1/2 inhibitors were prepared at 2× concentration (133.3 mg/mL) in 100% DMSO then diluted to 1× with an equal volume of PEG-400 (66.7 mg/mL, 400 μg total daily dose). Prepared compounds were then loaded into osmotic pumps per the manufacturer's instructions and surgically implanted in accordance with our IACUC-approved protocol.

[4] = system: IFNγ-induced Stat1 phosphorylation; assay: whole blood assay for IFNγ-induced Stat1 phosphorylation after dosing; format: in vivo, mouse
[5] = acute effects of four days daily baricitinib on blood and lymphoid organs; format: in vivo; conditions: B6 mice treated with daily baricitinib
Description: FIG. 16A-FIG. 16G. […] The color scheme in the legend (upper-right) is used throughout the figure. (A and B) Complete blood counts (A) and organ cellularity of spleen and bone marrow (B). (C) Proportions of HSPC subsets in bone marrow. (D) Absolute B, T, and myeloid (Gr1+ and/or CD11b+) cell counts in spleen, blood, and bone marrow. (E) Frequencies of FoxP3+ Tregs (relative to total CD4+ T cells) in spleen, blood and bone marrow. (F and G) Cell surface phenotyping of splenic T cells (F) and APCs (G). Data points and error bars represent mean±SEM, with mice pooled across 3 experiments. For statistical comparison: ns=not significant, * is p<0.05, ** is p<0.01, *** is p<0.001, and **** is p<0.0001.
as §4

[6] = system: αCD3-stimulated B6 T cells; assay: αCD3-stimulated CFSE-labeled T cell culture; format: cell-based, mouse
Method: FIG. 4A-FIG. 4E. […] (B) Donor chimerism in spleen and bone marrow of mice from panel (A). […] (D) Proliferation and viability of cultures in (C). (E) Cytokines present in supernatants collected from cultures described in (C) after 24 hours incubation. For (C-E), data from three technical replicates are shown from one representative of four experiments. For all panels, data points and error bars represent mean±SEM.
For ex vivo stimulation of primary mouse T cells, 1×10^5 T cells purified from spleen and lymph nodes with the EasySep Mouse T cell Isolation Kit (Stem Cell Technologies; Vancouver, BC, Canada) were cultured with 4×10^5 T-depleted splenocytes in 96-well round bottom plates in R10 media with 1 μg/mL αCD3. Supernatants were collected for cytokine analysis after 24 hours incubation, and cultured cells were analyzed for expansion by flow cytometry at 72 hours.
(§5) Cytokine concentrations in culture supernatant or mouse plasma were measured with the LegendPLEX Inflammation Panel (13-plex) or the Mouse Th1 Panel (5-plex) per the manufacturer protocols (BioLegend). Quantification was done using LegendPLEX software v8.0 for Windows. If a cytokine concentration was too low to be quantified, the sample was assigned the value of the lower limit of quantitation. For intracellular IFNγ analysis of splenic NK cells, cells were cultured in K10 media with or without cytokine stimulation for 15 hours, with 5 μg/mL Brefeldin A (BioLegend) added to each well for the last 2.5 hours. After this incubation period, cells were fixed, saponin-permeabilized, and stained as described above.

[7] = system: NK cell-mediated rejection; assay: parent-to-F1 allo-HSCT (B6→CB6F1), NK cell-mediated rejection; format: in vivo, mouse; conditions: pre-HSCT peripheral blood
Method: as §2, §3, §4

[8] = system: IL-15-stimulated B6 splenic NK cells; assay: functional assays of cytokine-stimulated splenic NK cells; format: cell-based, mouse
Method: FIG. 5A-FIG. 5H. […] Data points and error bars represent mean±SEM.
as §5

[9] = system: IL-15-induced Stat5 phosphorylation; assay: IL-15-induced Stat5 phosphorylation in NK cells; format: cell-based, mouse; conditions: 100 ng/mL IL-15, 30 minutes
[10] = prior work; cited from earlier work
NK cells = conditions: multiple reports; cited from earlier work
[11] = daily baricitinib plus CD45-SAP
[12] = IL-15 alone or IL-12, IL-15 and IL-18, 15 hours

CCS(=O)(=O)N1CC(CC#N)(n2cc(-c3ncnc4[nH]ccc34)cn2)C1 [baricitinib]
donor chimerism, baricitinib versus vehicle ([1]; CD45-SAP-conditioned, peripheral blood and lymphoid organs, daily baricitinib): no significant difference in donor chimerism
engraftment ([1]; baricitinib-treated mice conditioned with inactive ADC): no engraftment was observed
mice engrafted [2]: Seven of 10
mice achieving the donor chimerism ([3]; CD45-SAP plus continuously-infused baricitinib): 8 of 11
mice with stable engraftment ([3]; CD45-SAP, daily baricitinib and pre-transplant pan-TCD): 7 of 10
mice with donor chimerism [3, 11]: four of seven
mice with stable donor chimerism [3, 11]: stable in only one of those four
suppression of Stat1 phosphorylation ([4]; 80 μg single s.c. dose, 4 hours post-infusion): only partial suppression
suppression of Stat1 phosphorylation ([4]; 80 μg single s.c. dose, later timepoints): absent at later timepoints
suppression of Stat1 phosphorylation ([4]; 400 μg single s.c. dose, 12 and 24 hours): diminished slightly
suppression of Stat1 phosphorylation ([4]; 400 μg single s.c. dose, 4 hours post-infusion): completely suppressed
suppression of Stat1 phosphorylation ([4]; 400 μg single s.c. dose, 36 hours): absent
Stat1 phosphorylation in response to IFNγ, peripheral blood leukocytes ([4]; baricitinib-loaded osmotic pumps, four days post-implantation): impaired Stat1 phosphorylation
NK cell depletion by organ [5]: in the spleen and peripheral blood, but not bone marrow
IL-2 secretion ([6]; 24 hours): unaffected
concentrations of TNFα, IL-6 and IFNγ in culture supernatants ([6]; 24 hours): reduced
expansion of αCD3-stimulated CD4+ and CD8+ T cells ([6]; 72 hours, dose-dependent): impaired expansion
T cell death ([6]; αCD3-stimulated, 72 hours): increased cell death
T cell proliferation ([6]; αCD3-stimulated, 72 hours): mildly reduced cell proliferation
CB6F1 recipients' circulating NK cells [7]: markedly depleted
IL-15-induced upregulation of perforin and granzyme B ([8]; 24 hours): strongly suppressed
IL-15-mediated NK cell expansion ([8]; 72 hours): impaired IL-15-mediated NK cell expansion
IFNγ production by NK cells [8, 12]: decreases in IFNγ production
NK cell death [8, 12]: dose-dependent increases in cell death
IL-15-induced Stat5 phosphorylation [9]: inhibits IL-15-induced Stat5 phosphorylation in a dose-dependent manner
effect on GvHD and GvL [10]: prevents and even reverses established GvHD, while enhancing GvL effects

N#CC[C@H](C1CCCC1)n1cc(-c2ncnc3[nH]ccc23)cn1 [ruxolitinib]
engraftment ([3]; CD45-SAP plus continuously-infused ruxolitinib): permitted engraftment, albeit less effectively than baricitinib
effect on NK cells (NK cells): depletes NK cells in mice and humans
